Structures can show the parent of a compound that is named as a salt. This is one part of the list. Hit calls seldom repeat between salt and free forms of one compound.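 Kinases, fused to nanoluciferase, were expressed in K562 cells; luminescence was measured every 4 h from 2 to 18 h as percent of control (DMSO = 100%, positive control = 0%). A time point is decreased if signal falls significantly (2 sigma). Hits were called by the authors by a rule that is not shown; the count of time points alone does not decide it.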
Tests used:
Assay in all cases: kinase-Nluc reporter destabilization hit call (1 = scored as downregulated) (binary); higher = compound decreases kinase abundance
Conditions in all cases: K562, 2-18 h
IRAK3 = IRAK3 (UniProt Q9Y616)
JAK1 = JAK1 (UniProt P23458)
LIMK1 = LIMK1 (UniProt P53667)
LIMK2 = LIMK2 (UniProt P53671)
LMTK2 = LMTK2 (UniProt Q8IWU2)
LYN = LYN (UniProt P07948)
MAP2K1 = MAP2K1 (UniProt Q02750)
MAP2K2 = MAP2K2 (UniProt P36507)
MAP4K2 = MAP4K2 (UniProt Q12851)
LCK = LCK (UniProt P06239)

Amino acid sequences for entries named in this document (tags omitted). A change or cut given only in a name is not applied to a line headed by its entry.
UniProt Q9Y616: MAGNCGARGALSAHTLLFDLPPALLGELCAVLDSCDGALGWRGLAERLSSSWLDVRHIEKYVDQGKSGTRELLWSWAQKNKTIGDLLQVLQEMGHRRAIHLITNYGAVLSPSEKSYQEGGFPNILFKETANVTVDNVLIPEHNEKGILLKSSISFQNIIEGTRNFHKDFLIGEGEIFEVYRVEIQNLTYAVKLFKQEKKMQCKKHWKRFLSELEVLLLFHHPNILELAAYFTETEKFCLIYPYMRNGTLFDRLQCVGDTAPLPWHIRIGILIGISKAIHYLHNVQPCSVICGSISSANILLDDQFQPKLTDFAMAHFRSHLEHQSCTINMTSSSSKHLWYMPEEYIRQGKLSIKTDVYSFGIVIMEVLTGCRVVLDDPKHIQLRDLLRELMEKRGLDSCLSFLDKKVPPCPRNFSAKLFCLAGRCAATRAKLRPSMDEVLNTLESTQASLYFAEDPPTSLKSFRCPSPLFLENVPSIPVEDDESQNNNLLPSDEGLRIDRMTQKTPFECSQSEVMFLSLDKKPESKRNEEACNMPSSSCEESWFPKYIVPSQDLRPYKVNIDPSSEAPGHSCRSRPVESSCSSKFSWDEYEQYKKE
UniProt P23458: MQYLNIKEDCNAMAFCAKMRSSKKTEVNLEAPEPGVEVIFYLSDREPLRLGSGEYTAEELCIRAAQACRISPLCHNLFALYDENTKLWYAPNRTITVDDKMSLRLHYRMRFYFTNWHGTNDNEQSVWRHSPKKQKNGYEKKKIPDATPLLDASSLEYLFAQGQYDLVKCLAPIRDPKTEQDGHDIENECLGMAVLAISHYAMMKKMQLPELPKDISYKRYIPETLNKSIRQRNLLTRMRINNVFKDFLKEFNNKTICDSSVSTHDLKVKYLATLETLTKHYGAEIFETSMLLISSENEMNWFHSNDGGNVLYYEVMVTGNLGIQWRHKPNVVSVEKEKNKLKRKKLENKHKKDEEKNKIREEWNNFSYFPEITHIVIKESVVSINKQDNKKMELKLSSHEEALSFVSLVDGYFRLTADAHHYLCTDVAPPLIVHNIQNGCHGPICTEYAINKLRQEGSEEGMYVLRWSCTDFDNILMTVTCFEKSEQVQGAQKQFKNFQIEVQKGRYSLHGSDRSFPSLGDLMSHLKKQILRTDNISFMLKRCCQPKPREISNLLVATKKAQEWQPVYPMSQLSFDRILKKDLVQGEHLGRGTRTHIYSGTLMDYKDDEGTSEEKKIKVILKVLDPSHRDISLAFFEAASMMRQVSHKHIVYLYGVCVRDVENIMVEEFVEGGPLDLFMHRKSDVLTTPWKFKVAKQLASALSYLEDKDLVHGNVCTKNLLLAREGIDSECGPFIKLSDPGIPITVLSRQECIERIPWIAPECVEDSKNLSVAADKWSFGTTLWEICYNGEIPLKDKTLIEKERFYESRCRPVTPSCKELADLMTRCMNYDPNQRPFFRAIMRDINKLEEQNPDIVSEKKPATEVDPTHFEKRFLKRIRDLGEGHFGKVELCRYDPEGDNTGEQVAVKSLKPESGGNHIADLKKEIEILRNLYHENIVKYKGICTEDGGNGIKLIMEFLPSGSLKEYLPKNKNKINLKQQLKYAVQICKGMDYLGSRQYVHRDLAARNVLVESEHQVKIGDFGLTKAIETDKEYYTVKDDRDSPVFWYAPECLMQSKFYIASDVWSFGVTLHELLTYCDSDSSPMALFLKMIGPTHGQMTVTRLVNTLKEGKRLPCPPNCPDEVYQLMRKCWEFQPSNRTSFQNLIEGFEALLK
UniProt P53667: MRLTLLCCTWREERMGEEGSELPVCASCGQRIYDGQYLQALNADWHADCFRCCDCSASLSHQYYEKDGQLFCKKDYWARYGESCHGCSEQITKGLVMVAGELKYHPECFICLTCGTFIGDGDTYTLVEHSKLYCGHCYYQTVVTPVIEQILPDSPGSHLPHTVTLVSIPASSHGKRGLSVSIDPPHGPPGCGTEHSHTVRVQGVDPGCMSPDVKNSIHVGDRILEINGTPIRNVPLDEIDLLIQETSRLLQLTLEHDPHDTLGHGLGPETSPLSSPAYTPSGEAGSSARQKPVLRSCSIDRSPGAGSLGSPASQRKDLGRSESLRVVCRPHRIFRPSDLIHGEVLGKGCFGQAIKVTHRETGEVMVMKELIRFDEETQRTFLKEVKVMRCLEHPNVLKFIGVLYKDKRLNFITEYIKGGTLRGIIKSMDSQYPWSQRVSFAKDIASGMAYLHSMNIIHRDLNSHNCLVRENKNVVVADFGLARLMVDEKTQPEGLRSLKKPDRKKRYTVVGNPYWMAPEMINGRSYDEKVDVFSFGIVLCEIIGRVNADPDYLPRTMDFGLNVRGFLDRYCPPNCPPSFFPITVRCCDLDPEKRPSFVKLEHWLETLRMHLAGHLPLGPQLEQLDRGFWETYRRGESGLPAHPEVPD
UniProt P53671: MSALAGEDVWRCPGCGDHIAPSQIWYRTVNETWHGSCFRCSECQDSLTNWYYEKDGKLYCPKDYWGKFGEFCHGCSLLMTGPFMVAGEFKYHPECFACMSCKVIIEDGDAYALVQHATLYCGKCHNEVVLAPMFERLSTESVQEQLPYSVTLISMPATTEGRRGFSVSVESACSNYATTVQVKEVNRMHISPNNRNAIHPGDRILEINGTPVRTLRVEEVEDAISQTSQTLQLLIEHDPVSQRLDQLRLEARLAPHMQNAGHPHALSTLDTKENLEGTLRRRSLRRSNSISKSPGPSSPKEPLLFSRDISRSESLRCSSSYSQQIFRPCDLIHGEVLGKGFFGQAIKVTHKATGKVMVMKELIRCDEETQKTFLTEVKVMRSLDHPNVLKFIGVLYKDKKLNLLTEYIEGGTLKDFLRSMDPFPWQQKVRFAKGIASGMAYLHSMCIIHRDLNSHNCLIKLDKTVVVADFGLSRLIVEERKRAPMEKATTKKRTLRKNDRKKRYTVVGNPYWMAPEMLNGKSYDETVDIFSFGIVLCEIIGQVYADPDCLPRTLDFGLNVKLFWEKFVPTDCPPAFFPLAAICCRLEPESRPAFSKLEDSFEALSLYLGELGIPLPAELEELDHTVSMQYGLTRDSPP
UniProt Q8IWU2: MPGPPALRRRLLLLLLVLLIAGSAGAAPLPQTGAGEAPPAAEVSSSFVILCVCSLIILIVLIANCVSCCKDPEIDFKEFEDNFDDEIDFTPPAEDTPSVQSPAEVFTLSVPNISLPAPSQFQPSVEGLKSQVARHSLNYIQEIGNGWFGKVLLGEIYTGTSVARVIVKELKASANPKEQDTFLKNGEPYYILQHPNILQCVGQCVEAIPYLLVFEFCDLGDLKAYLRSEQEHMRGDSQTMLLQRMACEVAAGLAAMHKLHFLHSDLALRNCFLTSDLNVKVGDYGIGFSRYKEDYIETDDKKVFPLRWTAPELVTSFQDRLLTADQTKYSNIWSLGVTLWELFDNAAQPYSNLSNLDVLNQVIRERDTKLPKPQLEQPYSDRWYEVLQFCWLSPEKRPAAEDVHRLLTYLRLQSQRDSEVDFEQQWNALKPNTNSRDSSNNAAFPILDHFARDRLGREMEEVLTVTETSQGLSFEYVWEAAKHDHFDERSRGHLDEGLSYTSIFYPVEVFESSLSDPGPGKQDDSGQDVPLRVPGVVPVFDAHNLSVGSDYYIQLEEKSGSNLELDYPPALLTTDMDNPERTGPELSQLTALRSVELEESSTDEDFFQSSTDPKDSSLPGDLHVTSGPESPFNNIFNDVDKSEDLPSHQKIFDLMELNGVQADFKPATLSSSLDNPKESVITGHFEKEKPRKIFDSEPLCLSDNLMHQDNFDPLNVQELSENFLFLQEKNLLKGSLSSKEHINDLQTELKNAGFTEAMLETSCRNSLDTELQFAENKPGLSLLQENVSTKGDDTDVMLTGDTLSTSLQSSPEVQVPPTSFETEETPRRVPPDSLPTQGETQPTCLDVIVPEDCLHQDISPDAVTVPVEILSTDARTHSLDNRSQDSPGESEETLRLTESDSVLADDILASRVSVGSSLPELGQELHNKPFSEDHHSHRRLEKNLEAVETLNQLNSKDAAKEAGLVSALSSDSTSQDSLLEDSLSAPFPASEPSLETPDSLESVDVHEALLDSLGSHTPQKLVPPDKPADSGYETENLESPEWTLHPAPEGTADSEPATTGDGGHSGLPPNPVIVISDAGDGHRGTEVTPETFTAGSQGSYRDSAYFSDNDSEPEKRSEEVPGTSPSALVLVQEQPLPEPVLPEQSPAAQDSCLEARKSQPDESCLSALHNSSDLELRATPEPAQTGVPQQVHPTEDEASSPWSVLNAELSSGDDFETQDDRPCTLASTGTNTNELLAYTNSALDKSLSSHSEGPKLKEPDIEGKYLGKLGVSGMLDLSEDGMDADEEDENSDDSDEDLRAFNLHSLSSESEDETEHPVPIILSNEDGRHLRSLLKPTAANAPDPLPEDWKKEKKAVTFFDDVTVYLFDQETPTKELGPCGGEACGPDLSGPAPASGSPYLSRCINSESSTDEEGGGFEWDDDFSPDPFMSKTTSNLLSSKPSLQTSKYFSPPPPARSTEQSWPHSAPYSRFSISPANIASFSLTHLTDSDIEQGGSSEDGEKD
UniProt P07948: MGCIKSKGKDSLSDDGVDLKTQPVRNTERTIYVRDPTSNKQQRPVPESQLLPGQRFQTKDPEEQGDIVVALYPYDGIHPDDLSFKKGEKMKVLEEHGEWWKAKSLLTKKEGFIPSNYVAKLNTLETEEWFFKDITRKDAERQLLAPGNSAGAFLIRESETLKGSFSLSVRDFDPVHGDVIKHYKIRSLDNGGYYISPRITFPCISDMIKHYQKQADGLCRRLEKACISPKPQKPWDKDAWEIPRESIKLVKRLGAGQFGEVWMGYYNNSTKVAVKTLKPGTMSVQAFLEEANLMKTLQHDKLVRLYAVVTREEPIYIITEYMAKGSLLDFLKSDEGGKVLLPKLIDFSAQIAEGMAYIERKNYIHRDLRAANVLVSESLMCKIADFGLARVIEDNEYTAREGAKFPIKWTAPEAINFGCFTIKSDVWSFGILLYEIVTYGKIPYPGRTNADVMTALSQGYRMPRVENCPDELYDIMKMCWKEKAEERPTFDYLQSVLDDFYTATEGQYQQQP
UniProt Q12851: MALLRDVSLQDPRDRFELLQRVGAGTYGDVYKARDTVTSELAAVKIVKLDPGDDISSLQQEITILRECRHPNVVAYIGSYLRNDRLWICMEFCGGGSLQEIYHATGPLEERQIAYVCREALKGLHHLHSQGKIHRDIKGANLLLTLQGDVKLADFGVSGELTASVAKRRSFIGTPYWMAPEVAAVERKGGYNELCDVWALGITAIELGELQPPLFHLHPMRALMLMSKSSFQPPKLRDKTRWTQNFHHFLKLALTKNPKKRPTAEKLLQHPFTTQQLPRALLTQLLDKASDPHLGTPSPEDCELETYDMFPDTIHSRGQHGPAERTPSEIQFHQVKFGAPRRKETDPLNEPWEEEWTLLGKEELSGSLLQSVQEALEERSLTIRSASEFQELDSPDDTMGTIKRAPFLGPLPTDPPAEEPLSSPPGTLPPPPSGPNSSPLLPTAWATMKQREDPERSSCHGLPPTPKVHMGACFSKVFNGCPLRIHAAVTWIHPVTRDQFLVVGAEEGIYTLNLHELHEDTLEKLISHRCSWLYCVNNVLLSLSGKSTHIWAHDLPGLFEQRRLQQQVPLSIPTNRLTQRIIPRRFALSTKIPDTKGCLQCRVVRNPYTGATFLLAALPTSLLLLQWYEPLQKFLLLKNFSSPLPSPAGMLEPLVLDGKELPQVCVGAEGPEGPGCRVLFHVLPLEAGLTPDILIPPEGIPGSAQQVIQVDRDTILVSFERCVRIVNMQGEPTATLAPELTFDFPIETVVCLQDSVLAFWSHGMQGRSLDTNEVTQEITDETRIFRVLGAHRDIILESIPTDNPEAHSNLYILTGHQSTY
UniProt P06239: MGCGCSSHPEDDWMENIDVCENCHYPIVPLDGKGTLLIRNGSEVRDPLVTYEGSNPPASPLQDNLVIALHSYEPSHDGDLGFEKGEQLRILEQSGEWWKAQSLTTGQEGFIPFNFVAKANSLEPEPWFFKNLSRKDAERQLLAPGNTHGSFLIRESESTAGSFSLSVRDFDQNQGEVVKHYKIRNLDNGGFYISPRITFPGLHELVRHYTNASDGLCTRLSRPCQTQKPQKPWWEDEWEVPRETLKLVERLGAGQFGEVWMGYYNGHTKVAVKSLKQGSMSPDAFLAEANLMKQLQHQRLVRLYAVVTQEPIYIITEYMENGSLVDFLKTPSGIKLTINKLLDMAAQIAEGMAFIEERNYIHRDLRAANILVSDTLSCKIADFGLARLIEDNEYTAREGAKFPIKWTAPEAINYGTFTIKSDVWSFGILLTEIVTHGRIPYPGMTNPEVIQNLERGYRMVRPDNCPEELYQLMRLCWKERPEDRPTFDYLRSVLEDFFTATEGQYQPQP

Measured: kinase-Nluc reporter destabilization hit call

CC(=O)c1c(C)c2cnc(Nc3ccc(N4CCNCC4)cn3)nc2n(C2CCCC2)c1=O [Palbociclib (isethionate)]
inactive: IRAK3; 10 µM 0 | JAK1; 10 µM 0 | LIMK1; 10 µM 0 | LIMK2; 10 µM 0 | LMTK2; 10 µM 0 | LYN; 10 µM 0 | MAP2K1; 10 µM 0 | MAP2K2; 10 µM 0 | MAP4K2; 10 µM 0

C=CC(=O)Nc1cc(Nc2ncc(C(=O)OC(C)C)c(-c3cn(C)c4ccccc34)n2)c(OC)cc1N(C)CCN(C)C [Mobocertinib (succinate)]
inactive: IRAK3; 10 µM 0 | JAK1; 10 µM 0 | LCK; 10 µM 0 | LIMK1; 10 µM 0 | LIMK2; 10 µM 0 | LMTK2; 10 µM 0 | LYN; 10 µM 0 | MAP2K1; 10 µM 0 | MAP2K2; 10 µM 0 | MAP4K2; 10 µM 0

COCCOc1cc(F)c2c(Nc3ccc(NC(=O)Cn4cc(C(C)C)nn4)cc3)ncnc2c1
inactive: IRAK3; 10 µM 0 | JAK1; 10 µM 0 | LCK; 10 µM 0 | LIMK1; 10 µM 0 | LIMK2; 10 µM 0 | LMTK2; 10 µM 0 | LYN; 10 µM 0 | MAP2K1; 10 µM 0 | MAP2K2; 10 µM 0 | MAP4K2; 10 µM 0

CCCCCCCCc1ccc(CCC(N)(CO)CO)cc1 [Fingolimod (hydrochloride)]
inactive: IRAK3; 2.5 µM 0 | JAK1; 2.5 µM 0 | LCK; 2.5 µM 0 | LIMK1; 2.5 µM 0 | LIMK2; 2.5 µM 0 | LMTK2; 2.5 µM 0 | LYN; 2.5 µM 0 | MAP2K1; 2.5 µM 0 | MAP2K2; 2.5 µM 0 | MAP4K2; 2.5 µM 0

CC(C)Oc1ccc(-c2nn([C@@H](C)c3oc4ccc(F)cc4c(=O)c3-c3cccc(F)c3)c3ncnc(N)c23)cc1F [Umbralisib]
inactive: IRAK3; 2.5 µM 0 | JAK1; 2.5 µM 0 | LCK; 2.5 µM 0 | LIMK1; 2.5 µM 0 | LIMK2; 2.5 µM 0 | LMTK2; 2.5 µM 0 | LYN; 2.5 µM 0 | MAP2K1; 2.5 µM 0 | MAP2K2; 2.5 µM 0 | MAP4K2; 2.5 µM 0

Structures listed so far that contain fluorine, in the order listed:
COCCOc1cc(F)c2c(Nc3ccc(NC(=O)Cn4cc(C(C)C)nn4)cc3)ncnc2c1
inactive: IRAK3; 10 µM 0 | JAK1; 10 µM 0 | LCK; 10 µM 0 | LIMK1; 10 µM 0 | LIMK2; 10 µM 0 | LMTK2; 10 µM 0 | LYN; 10 µM 0 | MAP2K1; 10 µM 0 | MAP2K2; 10 µM 0 | MAP4K2; 10 µM 0

CC(C)Oc1ccc(-c2nn([C@@H](C)c3oc4ccc(F)cc4c(=O)c3-c3cccc(F)c3)c3ncnc(N)c23)cc1F [Umbralisib]
inactive: IRAK3; 2.5 µM 0 | JAK1; 2.5 µM 0 | LCK; 2.5 µM 0 | LIMK1; 2.5 µM 0 | LIMK2; 2.5 µM 0 | LMTK2; 2.5 µM 0 | LYN; 2.5 µM 0 | MAP2K1; 2.5 µM 0 | MAP2K2; 2.5 µM 0 | MAP4K2; 2.5 µM 0

Next entries

C=CC(=O)Nc1cc(Nc2nccc(-c3cn(C)c4ccccc34)n2)c(OC)cc1N(C)CCN(C)C [Osimertinib mesylate]
inactive: IRAK3; 2.5 µM 0 | JAK1; 2.5 µM 0 | LCK; 2.5 µM 0 | LIMK1; 2.5 µM 0 | LIMK2; 2.5 µM 0 | LMTK2; 2.5 µM 0 | LYN; 2.5 µM 0 | MAP2K1; 2.5 µM 0 | MAP2K2; 2.5 µM 0 | MAP4K2; 2.5 µM 0

C[C@@H](N)[C@H]1CC[C@H](C(=O)Nc2ccncc2)CC1
inactive: IRAK3; 10 µM 0 | JAK1; 10 µM 0 | LIMK1; 10 µM 0 | LIMK2; 10 µM 0 | LMTK2; 10 µM 0 | LYN; 10 µM 0 | MAP2K1; 10 µM 0 | MAP2K2; 10 µM 0 | MAP4K2; 10 µM 0

C/C=C1\C(=O)C[C@H]2[C@@H]3CCC4=CC(=O)CC[C@]4(C)[C@H]3CC[C@]12C [Guggulsterone]
inactive: IRAK3; 10 µM 0 | JAK1; 10 µM 0 | LCK; 10 µM 0 | LIMK1; 10 µM 0 | LIMK2; 10 µM 0 | LMTK2; 10 µM 0 | LYN; 10 µM 0 | MAP2K1; 10 µM 0 | MAP2K2; 10 µM 0 | MAP4K2; 10 µM 0

COc1ccc(S(=O)(=O)Nc2ccccc2CN(C)C/C=C/c2ccc(Cl)cc2)cc1 [KN-92 (phosphate)]
inactive: IRAK3; 2.5 µM 0 | JAK1; 2.5 µM 0 | LCK; 2.5 µM 0 | LIMK1; 2.5 µM 0 | LIMK2; 2.5 µM 0 | LMTK2; 2.5 µM 0 | LYN; 2.5 µM 0 | MAP2K1; 2.5 µM 0 | MAP2K2; 2.5 µM 0 | MAP4K2; 2.5 µM 0

CCS(=O)(=O)N1CC(CC#N)(n2cc(-c3ncnc4[nH]ccc34)cn2)C1 [Baricitinib]
inactive: IRAK3; 10 µM 0 | LCK; 10 µM 0 | LIMK1; 10 µM 0 | LIMK2; 10 µM 0 | LMTK2; 10 µM 0 | LYN; 10 µM 0 | MAP2K1; 10 µM 0 | MAP2K2; 10 µM 0 | MAP4K2; 10 µM 0

COc1cc2c(Oc3ccc4[nH]c(C)cc4c3F)ncnc2cc1OCCCN1CCCC1 [Cediranib]
inactive: IRAK3; 2.5 µM 0 | JAK1; 2.5 µM 0 | LCK; 2.5 µM 0 | LIMK1; 2.5 µM 0 | LIMK2; 2.5 µM 0 | LMTK2; 2.5 µM 0 | LYN; 2.5 µM 0 | MAP2K1; 2.5 µM 0 | MAP2K2; 2.5 µM 0 | MAP4K2; 2.5 µM 0

CCN(CC)CC(=O)Nc1c(C)cccc1C [Lidocaine (hydrochloride)]
inactive: IRAK3; 10 µM 0 | JAK1; 10 µM 0 | LCK; 10 µM 0 | LIMK1; 10 µM 0 | LIMK2; 10 µM 0 | LMTK2; 10 µM 0 | LYN; 10 µM 0 | MAP2K1; 10 µM 0 | MAP2K2; 10 µM 0 | MAP4K2; 10 µM 0

C#Cc1cccc(Nc2ncnc3cc(OCCOC)c(OCCOC)cc23)c1 [Erlotinib]
inactive: IRAK3; 10 µM 0 | JAK1; 10 µM 0 | LIMK1; 10 µM 0 | LIMK2; 10 µM 0 | LMTK2; 10 µM 0 | LYN; 10 µM 0 | MAP2K1; 10 µM 0 | MAP2K2; 10 µM 0 | MAP4K2; 10 µM 0
